Record: PubChem BioAssay AID602196 (INSERM, 2012)
Aim: 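Genes whose knock-down alters cisplatin killing of lung cancer cells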. Cell system: human A549 lung cancer cells. Reagents: siRNA pair against human genes. Duration: 48 h transfection before cisplatin; time from cisplatin to read-out not stated. Conditions: cisplatin at a dose killing half of control-siRNA cells; exact dose and duration not given. Measurement: 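Shift in cisplatin death relative to control siRNA, from -50 (all cells die) to +50 (no cells die); siRNAs harmful on their own scored 0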. Reading the numbers: two-siRNA summed score (-2 to +2): higher = both siRNAs protect from cisplatin killing; -2 means both sensitise; mean protection from cisplatin (shift in death) and protection from cisplatin (shift in death), siRNA C and protection from cisplatin (shift in death), siRNA D: higher = protection from cisplatin killing. Active means: 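Each siRNA scores 0 if harmful alone by LDH or WST-1, otherwise +1 if it reduces and -1 if it increases cisplatin killing; a gene is active when both siRNAs agree (sum +2 or -2)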. Calls: active = both siRNAs shift cisplatin killing the same way; inactive = no consistent shift, or siRNA harmful alone.
The whole screen tested about 23,000 reagents; shown is a part drawn at random. 455 of all reagents (2%) count as active. 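Active includes both protection and sensitisation; some change values fall well beyond the stated -50 to +50 range.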 The numbers tell different reagents against one gene apart. Reagent sequences are not shown. Not stated in the record: the amount of reagent.

Target gene	reagent no.	two-siRNA summed score (-2 to +2)	mean protection from cisplatin (shift in death) (%)	protection from cisplatin (shift in death), siRNA C (%)	protection from cisplatin (shift in death), siRNA D (%)	Outcome
TYMP	1	-1	-11.2	-18.7	-3.6	inactive
PYCR1	1	0	18.9	31.3	6.4	inactive
LOC389117	1	0	5.7	8.3	3	inactive
MAN1A1	1	0	0.3	6.9	-6.3	inactive
TLX1	1	0	7.8	17	-1.4	inactive
LOC133993	1	0	18.3	16.9	19.8	inactive
SNX13	1	-1	-12.9	7.4	-33.2	inactive
NDUFAB1	1	1	13.3	16.9	9.7	inactive
ZNF547	1	0	10.7	7.2	14.2	inactive
FSD1L	1	0	-2.9	-6.9	1.2	inactive
FSD1L	2	0	4.8	7	2.7	inactive
ASTN1	1	0	10.8	3.9	17.7	inactive
NIPBL	1	0	-3.1	10.3	-16.5	inactive
GFI1	1	-1	-19.8	-16.3	-23.3	inactive
FLJ34222	1	-1	1.8	20.5	-16.9	inactive
SNAI1	1	0	-4	14.2	-22.2	inactive
KIAA1171	1	1	7.7	2.6	12.9	inactive
LOC441165	1	-1	-5.3	0.4	-11.1	inactive
SLC10A4	1	-1	2	23	-18.9	inactive
ACAA1	1	1	18.5	26.8	10.2	inactive
ARL3	1	-1	-10.4	6.9	-27.6	inactive
C1R	1	0	-3.2	-5.4	-1	inactive
LOC283247	1	0	0.5	7.8	-6.7	inactive
DISC1	1	0	22.8	10.3	35.3	inactive
DISC1	2	1	16.8	7.3	26.3	inactive
IL21R	1	0	-9.5	-21.2	2.2	inactive
ZBTB32	1	-1	-2.6	12	-17.2	inactive
LOC91632	1	0	8.9	17	0.7	inactive
POFUT4	1	0	-9.4	-3.7	-15.2	inactive
JRKL	1	0	1	-5.7	7.7	inactive
NFIL3	1	0	4.7	15.2	-5.8	inactive
CYB561A3	1	0	6.8	1.5	12.1	inactive
LOC440508	1	0	2.9	5.7	0.2	inactive
NDUFB4P12	1	0	17.2	31.9	2.4	inactive
PLXNB2	1	0	3	8.6	-2.7	inactive
LOC340414	1	0	7.4	7.8	7	inactive
CALCOCO1	1	1	11.8	1.3	22.3	inactive
NPEPPSP1	1	0	12.8	4.4	21.3	inactive
COA8	1	1	-0.1	20.3	-20.5	inactive

3 entries from above, arranged by “mean protection from cisplatin (shift in death) (%)”, descending.
Target gene	reagent no.	two-siRNA summed score (-2 to +2)	mean protection from cisplatin (shift in death) (%)	protection from cisplatin (shift in death), siRNA C (%)	protection from cisplatin (shift in death), siRNA D (%)	Outcome
NDUFB4P12	1	0	17.2	31.9	2.4	inactive
LOC340414	1	0	7.4	7.8	7	inactive
PLXNB2	1	0	3	8.6	-2.7	inactive
